According to article PMC5703852:
Results are given in words; binding and its absence hold for the method and conditions named. In cells and extracts the contact can be indirect. Some results given as binding are weak or reduced against the parent protein; the word gives no strength.

By UniProt entry, the sequences of proteins in these tests, tags left out. Where a name states a change or a piece, a line headed by the entry shows the natural chain unless it says otherwise.
UniProt A6JFZ3: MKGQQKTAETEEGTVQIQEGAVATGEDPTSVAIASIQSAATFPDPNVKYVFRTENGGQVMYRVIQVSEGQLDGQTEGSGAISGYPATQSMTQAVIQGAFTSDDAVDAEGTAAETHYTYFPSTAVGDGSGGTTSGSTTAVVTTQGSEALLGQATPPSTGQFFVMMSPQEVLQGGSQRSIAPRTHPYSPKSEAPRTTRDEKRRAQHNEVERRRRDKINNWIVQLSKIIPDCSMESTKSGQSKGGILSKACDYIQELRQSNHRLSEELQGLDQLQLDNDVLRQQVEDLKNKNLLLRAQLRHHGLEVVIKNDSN
UniProt P22415: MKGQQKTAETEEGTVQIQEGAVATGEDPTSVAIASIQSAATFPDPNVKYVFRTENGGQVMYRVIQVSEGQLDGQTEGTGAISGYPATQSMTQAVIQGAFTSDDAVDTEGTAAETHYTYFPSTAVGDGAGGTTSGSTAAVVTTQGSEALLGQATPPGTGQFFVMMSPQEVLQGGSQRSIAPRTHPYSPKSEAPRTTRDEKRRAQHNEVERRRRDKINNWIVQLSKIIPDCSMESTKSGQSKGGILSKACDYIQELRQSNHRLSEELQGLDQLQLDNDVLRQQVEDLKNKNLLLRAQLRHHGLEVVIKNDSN
UniProt P52947: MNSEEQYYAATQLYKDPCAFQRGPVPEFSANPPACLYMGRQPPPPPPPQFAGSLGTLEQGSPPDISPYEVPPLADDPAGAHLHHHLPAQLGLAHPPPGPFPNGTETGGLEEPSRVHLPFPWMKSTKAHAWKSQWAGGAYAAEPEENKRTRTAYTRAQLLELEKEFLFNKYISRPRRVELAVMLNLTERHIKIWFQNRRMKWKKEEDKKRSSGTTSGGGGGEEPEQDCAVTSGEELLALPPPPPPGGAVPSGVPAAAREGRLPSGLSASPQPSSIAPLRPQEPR
UniProt P52946: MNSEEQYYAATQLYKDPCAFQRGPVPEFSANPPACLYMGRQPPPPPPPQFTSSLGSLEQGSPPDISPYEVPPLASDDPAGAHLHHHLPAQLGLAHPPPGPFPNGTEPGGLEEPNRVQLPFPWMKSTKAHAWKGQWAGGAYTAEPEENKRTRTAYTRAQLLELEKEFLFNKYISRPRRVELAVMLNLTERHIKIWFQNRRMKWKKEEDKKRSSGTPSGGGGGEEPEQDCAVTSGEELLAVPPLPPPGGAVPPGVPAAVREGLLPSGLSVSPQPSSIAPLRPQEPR

Tests used:
[1] = target: upstream stimulatory factor USF1 (endogenous, INS-1 cells) (rat (endogenous in INS-1)) (UniProt A6JFZ3); experiment: co-IP; 2 mg nuclear extract of INS-1 cells (starved, then 0, 5 or 25 mM glucose for 4 h; or DMSO 24 h), pre-cleared, incubated with USF1 antibody sc-8983 for 2 h at 4 °C, protein G sepharose, washed with PBS; Western blot for PDX-1
[2] = target: upstream stimulatory factor USF1 (endogenous, INS-1 cells) (rat (endogenous in INS-1)) (UniProt A6JFZ3); experiment: co-IP; as a1, but INS-1 cells treated with the CK2 inhibitors 10 µM CX-4945 or 50 µM quinalizarin for 24 h before nuclear extraction
GST-USF1 T100A = GST-USF1 T100A (UniProt P22415); experiment: pull-down; 10 µg purified GST fusion protein on GSH-sepharose in PBS-T (PBS pH 7.4, 1% Tween 20), 2 h at 4 °C with 7.5 µl in vitro translated [35S]methionine-labelled partner; SDS-PAGE, Coomassie, autoradiography; only the target purified
GST-USF1 wild-type = GST-USF1 wild-type (UniProt P22415); experiment: as above

binding [1] | binding [2] | binding (GST-USF1 T100A) | binding (GST-USF1 wild-type) | Substance
binds | binds weakly | – | – | PDX-1 (endogenous, INS-1 cells) (from UniProt P52947 1-283)
– | – | binds | binds | in vitro translated PDX-1 (pRSET-PDX-1) (from UniProt P52946 1-284)
